From the supplement of paper PMC3334620
In all, about 33,000 sequences were measured (“E-score (-0.5 to 0.5)”: median about -0.016, highest 2% from about 0.3 on). This is one part of the list.

Molecular target: T1, Yer184c (UniProt P39961)
T1 sequence: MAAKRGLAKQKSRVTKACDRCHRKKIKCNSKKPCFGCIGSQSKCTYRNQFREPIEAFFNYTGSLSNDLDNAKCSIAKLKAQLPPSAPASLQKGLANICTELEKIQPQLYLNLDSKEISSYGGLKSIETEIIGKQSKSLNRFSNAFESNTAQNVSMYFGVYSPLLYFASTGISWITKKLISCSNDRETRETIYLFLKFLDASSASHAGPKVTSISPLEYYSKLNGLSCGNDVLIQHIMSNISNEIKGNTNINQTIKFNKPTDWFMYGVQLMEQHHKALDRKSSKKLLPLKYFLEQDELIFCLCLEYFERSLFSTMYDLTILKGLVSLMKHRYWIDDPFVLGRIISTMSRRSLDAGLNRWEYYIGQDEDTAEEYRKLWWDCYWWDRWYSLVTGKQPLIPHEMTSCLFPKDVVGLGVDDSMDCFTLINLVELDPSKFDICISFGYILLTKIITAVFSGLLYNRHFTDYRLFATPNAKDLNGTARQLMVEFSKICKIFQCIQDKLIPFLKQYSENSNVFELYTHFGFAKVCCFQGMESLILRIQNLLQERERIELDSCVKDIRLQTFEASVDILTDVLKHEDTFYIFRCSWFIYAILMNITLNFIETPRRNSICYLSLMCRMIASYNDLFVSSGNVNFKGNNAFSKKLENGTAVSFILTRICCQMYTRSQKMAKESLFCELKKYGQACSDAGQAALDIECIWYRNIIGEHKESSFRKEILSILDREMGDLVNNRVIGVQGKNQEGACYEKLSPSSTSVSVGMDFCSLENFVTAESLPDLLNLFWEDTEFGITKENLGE
Experiment: PBM E-score (8-mer binding enrichment) (E-score (-0.5 to 0.5)); higher = stronger / more preferred TF binding
Conditions: protein concentration: 100 nM; construct: GST-full length
Method in brief: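 PURExpress in vitro transcription/translation supplied GST-tagged yeast transcription factors, either full-length or DNA-binding domain. Applied at about 100-200 nM to universal all-10-mer Agilent arrays double-stranded by primer extension, the bound protein was detected with fluorescent anti-GST. E-scores, modified Wilcoxon-Mann-Whitney statistics, were given by the Universal PBM Analysis Suite to ungapped eight-base words pooled with their reverse complements after masliner normalisation.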

| Sequence | PBM E-score |
| --- | --- |
| CGTAAATC | 0.0501 |
| TCGGTGAA | 0.105 |
| AAGCTTAC | -0.104 |
| TAACATGA | 0.0607 |
| AAAACCTC | 0.158 |
| CGCCCTGC | -0.082 |
| GAGGGAGA | -0.14 |
| ATTAAGCA | -0.00063 |
| CAGTGCTC | -0.101 |
| CACGTACA | -0.138 |
| AGTCCGCC | 0.169 |
| ATAGTAAG | 0.0588 |
| GCGAGTTA | 0.0711 |
| CAGCTTCG | -0.0525 |
| GACTTCGA | -0.0506 |
| CGCAACCG | 0.266 |
| GATTTAGA | 0.166 |
| AAGCGTAC | -0.243 |
| ATAGGATG | -0.115 |
| AATCTATA | 0.201 |
| AGCGAGGC | -0.11 |
| CGGGGTGA | 0.0178 |
| GAAACTTA | 0.197 |
| CGTAGAAA | 0.129 |
| AGTTTTTA | 0.191 |

| Sequence | PBM E-score |
| --- | --- |
| AGATTCAT | -0.0957 |
| AGGAAGCA | -0.138 |
| CAGTCGCC | -0.021 |
| TGAACCCA | 0.0217 |
| CCTGAGGA | -0.11 |
| CAAGTGGA | -0.158 |
| AAACTTTA | 0.135 |
| AGCCGGAT | 0.402 |
| CGTACTAC | -0.00152 |
| CACAACAA | 0.108 |
| AATCTGGT | 0.00445 |
| GACCAAAC | -0.0172 |
| GCTCAGCA | -0.0401 |
| TAGTCCGA | 0.203 |
| AAGTATTA | 0.0259 |
| ACACCCGC | 0.0605 |
| ACCCCTAC | -0.428 |
| AATAGGTG | -0.178 |
| CTTGGACA | -0.101 |
| AGCCCTAT | -0.119 |
| CTTACACC | -0.162 |
| AAAAACAT | 0.027 |
| CGAGCAGC | -0.0206 |
| GAGGATCA | -0.044 |
| GTGGTTGA | -0.0466 |

Fetched one by one from above (2):

| Sequence | PBM E-score |
| --- | --- |
| TAGTCCGA | 0.203 |
| GCTCAGCA | -0.0401 |

(further entries)

| Sequence | PBM E-score |
| --- | --- |
| AATTTAGT | 0.234 |
| AGATGGAA | 0.0987 |
| TGCGGCCA | -0.0382 |
| CCAAATGG | 0.0226 |
| CGGTTCGC | 0.0153 |
| AAGGCGTA | -0.0885 |
| ATAGGCTG | -0.0893 |
| AGTCAGGG | -0.368 |
| ACTATGTC | -0.0654 |
| AGCCTTGC | -0.15 |
| ACGTAGGG | -0.335 |
| GCTTCGAC | -0.19 |
| ACTCTGAG | -0.169 |
| CGGTCGTC | -0.0988 |
| ACCATGGT | -0.432 |
| CCCCTTTA | -0.142 |
| ATACTCTC | 0.0198 |
| CCCCCACC | -0.4 |
| CACGGGAA | 0.0605 |
| GAGAACCA | -0.00661 |
| CCCAGACG | -0.245 |
| AGGCTCAG | -0.163 |
| CCTAGGTA | -0.156 |
| GGCGGAAA | 0.108 |
| ATACCCCC | -0.214 |

Part of the list above, in CSV form:
Sequence,PBM E-score
CACGGGAA,0.0605
GAGAACCA,-0.00661
CCCAGACG,-0.245
AGGCTCAG,-0.163

Further results.

| Sequence | PBM E-score |
| --- | --- |
| CGGGAAAC | 0.286 |
| AAATTCAT | 0.0832 |
| ATCGTCCG | 0.242 |
| CACCCGTA | -0.128 |
| ACTTCATG | -0.111 |
| AGAGGAGC | -0.17 |
| AACAGTTA | 0.125 |
| CCGCGAAC | 0.0269 |
| ACGCGCCG | 0.058 |
| AATCCATG | -0.106 |
| AGGGCACT | -0.381 |
| CTCCCATA | -0.308 |
| ATCTCTTG | -0.172 |
| GAGGGAAA | -0.184 |
| GCTACGCC | -0.255 |
| ATTGCAGA | 0.129 |
| CCGTAACC | 0.222 |
| ACAGCCAC | 0.0446 |
| CACCCTGG | -0.263 |
| CCTCATGC | -0.323 |
| CGATTAGC | 0.0101 |
| AACGGATC | 0.306 |
| ATCATTCA | 0.195 |
| CGCTAGAG | -0.192 |
| CTTCAGGC | -0.121 |

| Sequence | PBM E-score |
| --- | --- |
| GAGGTGTA | -0.15 |
| CAAGGGTG | -0.209 |
| GTGTAAGA | -0.0634 |
| GGAACGAA | 0.0929 |
| ACCCCTTA | -0.129 |
| CTAGAGAG | -0.149 |
| CTACCGTC | -0.0721 |
| CGGGTTAC | 0.00164 |
| ACTTTGCT | -0.0767 |
| TAAGGTAA | 0.0874 |
| GCTGCAGC | -0.209 |
| GCGGATTA | 0.0175 |
| GCCTTTAA | 0.0977 |
| AATTCGGC | 0.24 |
| CGTCATAC | 0.129 |
| GAGAGAGA | -0.0723 |
| GCTTCGAA | 0.126 |
| CTGCGCGA | -0.145 |
| ATATGTGG | 0.00073 |
| AGACAACT | 0.00867 |
| AGTTCCCC | -0.0634 |
| AAAGCATC | 0.123 |
| TACTCGAA | 0.0325 |
| AAGTAAGG | -0.00028 |
| ATGGGGAA | -0.103 |

| Sequence | PBM E-score |
| --- | --- |
| GTGATCAC | 0.0663 |
| AATCGACC | 0.0634 |
| AAGGGGGC | -0.276 |
| AGTGAAGC | 0.013 |
| GGTAAACA | 0.202 |
| AGCTGAAC | -0.104 |
| AAATCTGG | 0.154 |
| AACGGTAT | 0.0653 |
| CGCGGATC | 0.13 |
| CGCACAGC | 0.00671 |
| AATGGGTA | 0.235 |
| GCCCCTCC | -0.27 |
| CCTGCATA | -0.105 |
| CCCAGTAC | -0.18 |
| AGGACTTA | -0.159 |
| AATGTGCC | 0.0817 |
| GGGAGACA | -0.0399 |
| CCGCGAGC | 0.0253 |
| GCGTTACC | -0.101 |
| GTGTCGCA | -0.0721 |
| CCCGCGTC | 0.0602 |
| GAGTAGCC | -0.0142 |
| TCCTTTAA | 0.0155 |
| CGAGTGAC | -0.0518 |
| ATATAATG | -0.0164 |

Single entries from the results shown:
CGAGTGAC – PBM E-score: -0.0518
AGTGAAGC – PBM E-score: 0.013
ATATAATG – PBM E-score: -0.0164
AATGTGCC – PBM E-score: 0.0817
GGGAGACA – PBM E-score: -0.0399
AAGGGGGC – PBM E-score: -0.276
AGGACTTA – PBM E-score: -0.159

Further records

| Sequence | PBM E-score |
| --- | --- |
| ACTGTGGG | -0.216 |
| AGATTGCA | 0.0291 |
| CGTAGATA | -0.00543 |
| CCGGGCAA | 0.235 |
| GCGACACA | -0.159 |
| CACCAGTC | -0.277 |
| ATCGTAGG | -0.128 |
| AGAGACCG | -0.00169 |
| GCCCAATA | -0.138 |
| ATTGTCAC | 0.0514 |
| CCTAACCA | -0.0677 |
| GGGTAGCA | -0.0682 |
| TCACCAGA | -0.25 |
| CCCCGCTA | -0.0597 |
| GGTCGTTA | 0.0632 |
| GTGCCACA | -0.256 |
| ATGTTGCA | -0.133 |
| AAAGGTCA | -0.0675 |
| GGGACGAC | -0.0383 |
| AGCGACGA | -0.12 |
| TACCATAA | 0.134 |
| TACAATAA | 0.14 |
